{"source": "patent US12703731B2", "about": "“Long-acting GLP-1 compound” (Gan & Lee Pharmaceuticals Co., Ltd., priority 2019, dated 2026)", "tested_on": "db/db mice", "test": "Single-dose pharmacodynamic study on db/db mice (Example 5)", "assay_type": "in vivo", "settings": "single s.c. 100 μg/kg", "protocol": "The title compounds of Examples 1-4 and Comparative Examples 1-4 (also known as GLP-1 derivatives) were tested in a single dose study on an obese mouse model (db/db mice) with type 2 diabetes (T2DM). The hypoglycemic drug effect of the GLP-1 derivatives was tested at a dose of 100 μg/kg.\nMale db/db (BKS/Lepr) mice aged 8-9 weeks were housed in appropriately sized feeding cages in a barrier environment and had free access to standard food and purified water, with environmental conditions controlled at 40%-60% relative humidity (RH) and 22-24° C. After an adaptation period of 1-2 weeks, the mice were used in the experiment.\nBefore the start of the experiment on the day, the mice were evaluated for baseline blood glucose at about 9:30 a.m. and weighed. […]\nThe GLP-1 derivatives were dissolved in the vehicle to an administration concentration of 20 μg/mL, and the administration volume was 5 mL/kg (i.e., 50 μL/10 g body weight). […] The tail of each mouse was cleaned with an alcohol cotton ball, and blood drops were collected from the tail using a disposable blood collection needle and measured with a glucometer and accompanying testing strips (Roche). Food intake and body weight of each mouse were measured at 24 h, 48 h and 72 h after the administration. […]", "note": "Some results were stated once for a whole list of compounds, not compound by compound. Some ranges recur; such a range may be that of the whole group of compounds."}
{"substance": "N-ε^26-(19-carboxynonadecanoylamino)-4(S)-carboxybutanoyl-[Gly8, Arg34]GLP-1-(7-37) Peptide [Compound 3]", "values": [{"measurement": "effective duration of action on db/db mice compared to liraglutide and Comparative Examples 3-4", "value": "significantly longer than that of liraglutide and the compounds of Comparative Examples 3-4"}]}
